# From PubChem BioAssay AID1671190 (National Center for Advancing Translational Sciences (NCATS), 2021)
# Amino acid sequences for entries named in this document (tags omitted). A change or cut given only in a name is not applied to a line headed by its entry.
# UniProt P18054: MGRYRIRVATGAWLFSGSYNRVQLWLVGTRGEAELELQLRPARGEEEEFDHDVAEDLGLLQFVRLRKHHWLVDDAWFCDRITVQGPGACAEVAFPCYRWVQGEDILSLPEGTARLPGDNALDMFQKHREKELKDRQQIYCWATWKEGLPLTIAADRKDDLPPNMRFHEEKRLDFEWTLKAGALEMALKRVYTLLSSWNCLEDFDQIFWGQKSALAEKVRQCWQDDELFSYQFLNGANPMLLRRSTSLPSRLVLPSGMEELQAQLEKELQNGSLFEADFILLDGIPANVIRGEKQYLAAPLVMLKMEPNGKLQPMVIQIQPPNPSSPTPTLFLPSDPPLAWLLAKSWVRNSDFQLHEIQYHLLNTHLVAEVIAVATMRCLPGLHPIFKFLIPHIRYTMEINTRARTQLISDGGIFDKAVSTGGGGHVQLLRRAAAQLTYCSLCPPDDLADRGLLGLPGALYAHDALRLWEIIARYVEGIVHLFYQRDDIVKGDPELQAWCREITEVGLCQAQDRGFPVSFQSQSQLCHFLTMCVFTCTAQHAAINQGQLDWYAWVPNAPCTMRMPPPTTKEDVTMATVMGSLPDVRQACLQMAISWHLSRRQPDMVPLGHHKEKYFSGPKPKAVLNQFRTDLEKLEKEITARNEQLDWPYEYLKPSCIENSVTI
# Hit rate of the full screen: of about 580,000 compounds, about 6,100 (1.1%) were called active. Inconclusive means that the source gave no clear call. Such entries were picked first, then a sample of the others. Calls follow the shape of the dose curve; as a rule, active = well fitted inhibition curve with a large enough effect; inconclusive = small, poorly fitted or top-dose-only effect, or another doubt; inactive = no such curve, though single readings can be large or run the other way. Potencies of inconclusive entries are doubtful fits and often do not repeat.
# Target: Polyunsaturated fatty acid lipoxygenase ALOX12 (Homo sapiens) (UniProt P18054)
# Assay: Primary qHTS assay for inhibitors of human arachidonate 12S-lipoxygenase (ALOX12): Round 2
# Conditions: purified 12hLO, xylenol orange hydroperoxide absorbance; activity change, negative = inhibition: at 108 µM (top of the series)
# Method in brief: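 Purified human 12hLO at 150 nM in 25 mM Hepes, 0.01% Triton X-100, pH 7.0, preincubated 15 min at room temperature with compound. Reaction started with 40 uM arachidonic acid, 30 min at room temperature. Hydroperoxide measured by Fe-xylenol orange, 573/405 nm absorbance ratio.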
# % is scaled to controls: 0 for no effect and ±100 for the full control effect; potency is read from the fitted curve at half-maximal effect.
SMILES,Potency,"activity change, negative = inhibition"
O=C(O)C1=NOC2CN(Cc3ccccn3)CC12 (stereo not given),"inconclusive: 1.84 µM [inhibitor, partial curve]",
CCCNC(=O)NC(=O)CCl,"inconclusive: 31.6 µM [inhibitor, full curve, poor fit]",
CC(C)C12CN3CN(C1)CC(C(C)C)(C3)C2=O,,inactive: 0.316%
COc1cc2c(cc1Oc1cccc(N(C)C)c1)NC(=O)C21CCN(Cc2ccccc2)CC1,active: 89.1 µM,
Cc1cccc(C)c1NC(=O)c1cccn(Cc2ccc3c(c2)OC(F)(F)O3)c1=O,"inconclusive: 79.4 µM [inhibitor, partial curve, poor fit]",
CN(C)CCN(C)CCc1ccc(Cl)c(Cl)c1,"inconclusive: 0.968 µM [inhibitor, full curve]",
C[C@@]12CC[C@@H](c3cc4c(cc3C1)OCO4)N2c1ccccc1,"inconclusive: 79.4 µM [inhibitor, partial curve, poor fit]",
CSC(C)C(=O)NC(C)Cc1ccc(Br)cc1 (stereo not given),,inactive: -28.4%
COc1ccc(C(=O)NC[C@H]2C[C@@H]3CCN2C[C@@H]3c2cc(-c3ccccc3Br)nc(C)n2)cc1,,inactive: 5.28%
COc1cccc(CC(=O)N2CCCCCC2CN2CCC(OC)CC2)c1 (stereo not given),,inactive: 14.8%
Ic1ccccc1CN[C@@H]1C2CCN(CC2)[C@@H]1C(c1ccccc1)c1ccccc1,"inconclusive: 39.8 µM [inhibitor, partial curve]",
CCCCN1C(=O)/C(=C\c2ccco2)C(=O)N(CCc2ccccc2)C1=O,"inconclusive: 17.8 µM [inhibitor, partial curve, poor fit]",
CN1CC2(C)CNCC(C)(C1)C2O (stereo not given),"inconclusive: 31.6 µM [inhibitor, partial curve, poor fit]",
CC(C)Oc1ccc(C(=O)N2CCC3(CC2)c2nccn2-c2ccccc2CN3C)cc1,,inactive: 19.2%
CC(=O)c1ccc(NC(=O)NC[C@H]2C[C@@H]3CCN2C[C@@H]3c2cc(-c3ccco3)nc(C)n2)cc1,,inactive: -4.49%
Cc1ncsc1CN1CC(CO)C2(CCNCC2)C1 (stereo not given),"inconclusive: 7.08 µM [inhibitor, full curve, poor fit]",
CCCCCCn1c(O)c(C=NC2CCN(Cc3ccccc3)CC2)c(=O)[nH]c1=O,,inactive: 0%
CCCCCCCSc1cc(OC)c(CCNC)cc1OC,"inconclusive: 2 µM [inhibitor, full curve]",
CCOC(=O)[C@]12Cc3cc4ccccc4cc3[C@H]1N(Cc1ccccc1)C(=O)c1ccccc12,"inconclusive: 79.4 µM [inhibitor, partial curve, poor fit]",
COc1ccccc1NC(=O)N1C[C@@H]2C[C@H](C1)c1c(-c3cccs3)ccc(=O)n1C2,,inactive: 29.9% [at 176 µM]

# An excerpt taken from the entries so far, for reference:
SMILES,Potency,"activity change, negative = inhibition"
CCCCN1C(=O)/C(=C\c2ccco2)C(=O)N(CCc2ccccc2)C1=O,"inconclusive: 17.8 µM [inhibitor, partial curve, poor fit]",
CN1CC2(C)CNCC(C)(C1)C2O (stereo not given),"inconclusive: 31.6 µM [inhibitor, partial curve, poor fit]",
